Laboratory results from paper PMC10861518.
No constants are given. Whether binding was seen depends on the method and setting. Binding seen in cells or lysates may run through a third protein. Some binding calls cover weakened binding; strength is not graded here. Where a sequence is shown, tags or fusion partners need not be part of it.

Key:
Assay in all cases: co-IP; HEK293T cells cotransfected for 48 h with Biotin-HNF4α and a Myc-Peli1 construct; whole cell lysates immunoprecipitated with Myc antibody and protein A/G agarose at 4 °C, washed with buffer with 500 mM NaCl; Biotin-HNF4α detected with Streptavidin-Biotin complex containing HRP
[1] = target: T1, Peli1 with a deletion of the FHA domain (aa 276-418, Myc-ΔFHA-Peli1) (UniProt Q96FA3)
T1 sequence: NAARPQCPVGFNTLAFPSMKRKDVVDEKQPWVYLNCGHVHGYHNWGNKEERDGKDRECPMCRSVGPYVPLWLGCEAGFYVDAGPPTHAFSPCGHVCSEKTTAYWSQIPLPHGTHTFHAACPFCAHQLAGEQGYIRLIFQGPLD

[2] = target: T2, Peli1 with a deletion of the RING-like domain (aa 1-289, Myc-ΔRING-Peli1) (UniProt Q96FA3)
T2 sequence: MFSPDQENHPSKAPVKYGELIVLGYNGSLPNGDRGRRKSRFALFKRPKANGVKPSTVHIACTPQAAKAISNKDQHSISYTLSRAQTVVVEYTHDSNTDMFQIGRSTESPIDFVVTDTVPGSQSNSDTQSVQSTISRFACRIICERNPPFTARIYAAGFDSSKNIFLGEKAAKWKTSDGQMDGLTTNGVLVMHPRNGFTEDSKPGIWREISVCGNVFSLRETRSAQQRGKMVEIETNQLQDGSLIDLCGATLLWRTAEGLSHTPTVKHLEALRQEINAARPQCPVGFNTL

[3] = target: T3, Myc-tagged full-length Peli1 (Myc-Full-Peli1) (UniProt Q96FA3)
T3 sequence: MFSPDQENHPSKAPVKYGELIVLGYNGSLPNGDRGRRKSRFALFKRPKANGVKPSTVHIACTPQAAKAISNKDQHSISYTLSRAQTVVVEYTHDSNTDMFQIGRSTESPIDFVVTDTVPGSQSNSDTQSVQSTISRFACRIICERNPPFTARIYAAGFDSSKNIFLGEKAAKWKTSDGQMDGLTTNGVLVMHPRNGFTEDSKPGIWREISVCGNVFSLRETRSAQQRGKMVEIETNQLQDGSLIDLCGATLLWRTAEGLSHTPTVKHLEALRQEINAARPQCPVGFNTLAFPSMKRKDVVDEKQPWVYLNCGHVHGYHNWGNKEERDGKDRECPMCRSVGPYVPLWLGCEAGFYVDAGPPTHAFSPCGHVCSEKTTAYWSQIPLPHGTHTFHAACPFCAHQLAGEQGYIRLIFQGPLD

B1: Biotin-HNF4α (hepatocyte nuclear factor 4alpha with TEV cleavage site and biotinylated peptide, from pEBB-TB-HNF4α) (protein, UniProt P41235 1-474)
chain: MRLSKTLVDMDMADYSAALDPAYTTLEFENVQVLTMGNDTSPSEGTNLNAPNSLGVSALCAICGDRATGKHYGASSCDGCKGFFRRSVRKNHMYSCRFSRQCVVDKDKRNQCRYCRLKKCFRAGMKKEAVQNERDRISTRRSSYEDSSLPSINALLQAEVLSRQITSPVSGINGDIRAKKIASIADVCESMKEQLLVLVEWAKYIPAFCELPLDDQVALLRAHAGEHLLLGATKRSMVFKDVLLLGNDYIVPRHCPELAEMSRVSIRILDELVLPFQELQIDDNEYAYLKAIIFFDPDAKGLSDPGKIKRLRSQVQVSLEDYINDRQYDSRGRFGELLLLLPTLQSITWQMIEQIQFIKLFGMAKIDNLLQEMLLGGSPSDAPHAHHPLHPHLMQEHMGTNVIVANTMPTHLSNGQMCEWPRPRGQAATPETPQPSPPGGSGSEPYKLLPGAVATIVKPLSAIPQPTITKQEVI
modifications: biotin on the biotinylated peptide tag
In the case of B1, the binding [1] is reported as “binds”, the binding [2] is reported as “no binding” and the binding [3] is reported as “binds”.
